The values below come from patent publication US6441029B1, “Method of suppressing tumor growth with combinations of isoprenoids and statins” (Wisconsin Alumni Research Foundation, priority 1997, dated 2002).

The data set deals with established implanted B16 melanoma. Briefly: Experiment 2: isoprenoid-enriched diets, survival of mice bearing established melanomas. To be noted: diets started after tumor detection, n = 12. Format: in vivo, C57BL female mice. Here is the method:
Where noted, β-ionone was added to the oil. The diets, mixed weekly, were stored under refrigeration. Food cups were cleaned and refilled daily.
Experiment 2: Weanling female C57BL female mice (n=60, Harlan Sprague-Dawley) were acclimated to the housing conditions and AIN-76A diet (116 μmol dl-α-tocopherol/kg diet) as described above. Tumors were implanted and the mice continued to receive the AIN-76A diet. Beginning on day 8 post-implant the mice were palpated daily for the presence of a tumor. Tumors were first detected on day 14. Random numbers were generated for assigning each mouse in a sequential subset of five to a diet. Experimental treatments provided 2 and 4 mmol d-γ-tocotrienol/kg diet. We additionally tested the impact of β-ionone (2 mmol β-ionone/kg AIN-76A diet) and that of a blend of the two isoprenoids (2 mmol each/kg diet) on the survival of the mice.
We then asked if either dietary d-γ-tocotrienol or β-ionone would prolong the survival of mice bearing implanted melanomas. Dietary treatments were initiated following the detection of solid tumors. We also asked whether these structurally diverse isoprenoids would have an additive effect on survival. The experimental groups were constructed by random assignment of each member of successive subsets of 5 mice to one of the experimental diets. […] Treatments increased median duration of survival by 42±4.5% and the mean duration of survival by 30% (P<0.005); differences between duration of survival means of the experimental groups were not significant (Table 3, FIG. 3). FIG. 3 is a survival curve for host mice receiving isoprenoid-enriched diets following the detection of a solid implanted B16 melanoma. Mean survival durations are presented on Table 4. β-ionone and γ-tocotrienol^1 treatments provided 2 mmol of the isoprenoid/kg diet; the blend provided 2 mmol of each isoprenoid/kg diet; and γ-tocotrienol^2 provided 4 mmol γ-tocotrienol/kg diet.

The mark [1] stands for this setting: group assigned to 2 mmol/kg diet.

`CC(C)=CCCC(C)=CCCC(C)=CCCC1(C)CCc2cc(O)c(C)c(C)c2O1` (stereo not drawn) [d-γ-Tocotrienol, 2,7,8-trimethyl-2-(4,8,12-trimethyltrideca-3,7,11-trienyl)-chroman-6-ol]: the Days to tumor worked out at 14.92 days under setting [1] and 14.92 days (group assigned to 4 mmol/kg diet).

In turn, `CC(=O)C=CC1=C(C)CCCC1(C)C` [β-Ionone] showed a Days to tumor under setting [1] of 14.92 days.
